Experimental data from paper PMC10644598.
Results are given in words; binding and its absence hold for the method and conditions named. Binding seen in cells or lysates may run through a third protein. Some binding calls cover weakened binding; strength is not graded here. Sequences can lack the tags named with a protein.

The chains behind the UniProt entries cited, without tags or fusion partners.
UniProt Q9Y5K6: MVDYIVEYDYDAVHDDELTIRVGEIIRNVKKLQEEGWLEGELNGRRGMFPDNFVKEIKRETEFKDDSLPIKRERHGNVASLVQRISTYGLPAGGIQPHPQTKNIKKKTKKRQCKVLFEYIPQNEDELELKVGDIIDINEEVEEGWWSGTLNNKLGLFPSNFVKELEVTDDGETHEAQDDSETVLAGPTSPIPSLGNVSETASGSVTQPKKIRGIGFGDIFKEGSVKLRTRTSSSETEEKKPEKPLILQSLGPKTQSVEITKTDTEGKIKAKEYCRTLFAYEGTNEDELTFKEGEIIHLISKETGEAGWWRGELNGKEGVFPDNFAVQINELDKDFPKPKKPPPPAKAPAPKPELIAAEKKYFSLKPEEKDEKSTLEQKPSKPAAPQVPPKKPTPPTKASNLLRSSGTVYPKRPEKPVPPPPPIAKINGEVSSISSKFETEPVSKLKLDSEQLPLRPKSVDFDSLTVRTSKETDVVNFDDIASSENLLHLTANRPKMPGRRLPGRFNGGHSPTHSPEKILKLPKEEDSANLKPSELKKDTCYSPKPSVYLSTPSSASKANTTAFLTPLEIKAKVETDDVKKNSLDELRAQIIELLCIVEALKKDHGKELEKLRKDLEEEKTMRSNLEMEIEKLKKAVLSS

Target: CD2 association protein (CD2AP) (human (endogenous in HEK293T)) (UniProt Q9Y5K6)
Experiment: co-IP; HEK293T cells transfected with Flag Vector, Flag-WT or Flag-E841K and lysed at 48 h; protein A/G beads pre-incubated with CD2AP overnight were added to the supernatant, 4 °C overnight; five washes with RIPA buffer; blot for Flag and CD2AP; the results call it a pull-down

Binder | binding
Flag-WT (ANLN, anillin, wild type) (protein, UniProt Q9NQW6-1 1-1124) MDPFTEKLLERTRARRENLQRKMAERPTAAPRSMTHAKRARQPLSEASNQQPLSGGEEKSCTKPSPSKKRCSDNTEVEVSNLENKQPVESTSAKSCSPSPVSPQVQPQAADTISDSVAVPASLLGMRRGLNSRLEATAASSVKTRMQKLAEQRRRWDNDDMTDDIPESSLFSPMPSEEKAASPPRPLLSNASATPVGRRGRLANLAATICSWEDDVNHSFAKQNSVQEQPGTACLSKFSSASGASARINSSSVKQEATFCSQRDGDASLNKALSSSADDASLVNASISSSVKATSPVKSTTSITDAKSCEGQNPELLPKTPISPLKTGVSKPIVKSTLSQTVPSKGELSREICLQSQSKDKSTTPGGTGIKPFLERFGERCQEHSKESPARSTPHRTPIITPNTKAIQERLFKQDTSSSTTHLAQQLKQERQKELACLRGRFDKGNIWSAEKGGNSKSKQLETKQETHCQSTPLKKHQGVSKTQSLPVTEKVTENQIPAKNSSTEPKGFTECEMTKSSPLKITLFLEEDKSLKVTSDPKVEQKIEVIREIEMSVDDDDINSSKVINDLFSDVLEEGELDMEKSQEEMDQALAESSEEQEDALNISSMSLLAPLAQTVGVVSPESLVSTPRLELKDTSRSDESPKPGKFQRTRVPRAESGDSLGSEDRDLLYSIDAYRSQRFKETERPSIKQVIVRKEDVTSKLDEKNNAFPCQVNIKQKMQELNNEINMQQTVIYQASQALNCCVDEEHGKGSLEEAEAERLLLIATGKRTLLIDELNKLKNEGPQRKNKASPQSEFMPSKGSVTLSEIRLPLKADFVCSTVQKPDAANYYYLIILKAGAENMVATPLASTSNSLNGDALTFTTTFTLQDVSNDFEINIEVYSLVQKKDPSGLDKKKKTSKSKAITPKRLLTSITTKSNIHSSVMASPGGLSAVRTSNFALVGSYTLSLSSVGNTKFVLDKVPFLSSLEGHIYLKIKCQVNSSVEERGFLTIFEDVSGFGAWHRRWCVLSGNCISYWTYPDDEKRKNPIGRINLANCTSRQIEPANREFCARRNTFELITVRPQREDDRETLVSQCRDTLCVTKNWLSADTKEERDLWMQKLNQVLVDIRLWQPDACYKPIGKP | binds
Flag-E841K (ANLN E841K) (protein, UniProt Q9NQW6-1 1-1124) MDPFTEKLLERTRARRENLQRKMAERPTAAPRSMTHAKRARQPLSEASNQQPLSGGEEKSCTKPSPSKKRCSDNTEVEVSNLENKQPVESTSAKSCSPSPVSPQVQPQAADTISDSVAVPASLLGMRRGLNSRLEATAASSVKTRMQKLAEQRRRWDNDDMTDDIPESSLFSPMPSEEKAASPPRPLLSNASATPVGRRGRLANLAATICSWEDDVNHSFAKQNSVQEQPGTACLSKFSSASGASARINSSSVKQEATFCSQRDGDASLNKALSSSADDASLVNASISSSVKATSPVKSTTSITDAKSCEGQNPELLPKTPISPLKTGVSKPIVKSTLSQTVPSKGELSREICLQSQSKDKSTTPGGTGIKPFLERFGERCQEHSKESPARSTPHRTPIITPNTKAIQERLFKQDTSSSTTHLAQQLKQERQKELACLRGRFDKGNIWSAEKGGNSKSKQLETKQETHCQSTPLKKHQGVSKTQSLPVTEKVTENQIPAKNSSTEPKGFTECEMTKSSPLKITLFLEEDKSLKVTSDPKVEQKIEVIREIEMSVDDDDINSSKVINDLFSDVLEEGELDMEKSQEEMDQALAESSEEQEDALNISSMSLLAPLAQTVGVVSPESLVSTPRLELKDTSRSDESPKPGKFQRTRVPRAESGDSLGSEDRDLLYSIDAYRSQRFKETERPSIKQVIVRKEDVTSKLDEKNNAFPCQVNIKQKMQELNNEINMQQTVIYQASQALNCCVDEEHGKGSLEEAEAERLLLIATGKRTLLIDELNKLKNEGPQRKNKASPQSEFMPSKGSVTLSEIRLPLKADFVCSTVQKPDAANYYYLIILKAGAKNMVATPLASTSNSLNGDALTFTTTFTLQDVSNDFEINIEVYSLVQKKDPSGLDKKKKTSKSKAITPKRLLTSITTKSNIHSSVMASPGGLSAVRTSNFALVGSYTLSLSSVGNTKFVLDKVPFLSSLEGHIYLKIKCQVNSSVEERGFLTIFEDVSGFGAWHRRWCVLSGNCISYWTYPDDEKRKNPIGRINLANCTSRQIEPANREFCARRNTFELITVRPQREDDRETLVSQCRDTLCVTKNWLSADTKEERDLWMQKLNQVLVDIRLWQPDACYKPIGKP | binds
